Data from the supplement of paper PMC10849652.
The other results are listed elsewhere or left out.

By UniProt entry, the sequences of proteins in these tests, tags left out. Where a name states a change or a piece, a line headed by the entry shows the natural chain unless it says otherwise.
UniProt Q9UL26: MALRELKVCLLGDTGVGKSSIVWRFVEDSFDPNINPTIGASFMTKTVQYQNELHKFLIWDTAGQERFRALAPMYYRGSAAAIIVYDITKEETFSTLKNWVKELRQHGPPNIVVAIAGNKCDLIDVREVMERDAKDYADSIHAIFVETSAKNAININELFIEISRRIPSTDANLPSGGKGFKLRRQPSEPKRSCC
UniProt Q7Z6M1: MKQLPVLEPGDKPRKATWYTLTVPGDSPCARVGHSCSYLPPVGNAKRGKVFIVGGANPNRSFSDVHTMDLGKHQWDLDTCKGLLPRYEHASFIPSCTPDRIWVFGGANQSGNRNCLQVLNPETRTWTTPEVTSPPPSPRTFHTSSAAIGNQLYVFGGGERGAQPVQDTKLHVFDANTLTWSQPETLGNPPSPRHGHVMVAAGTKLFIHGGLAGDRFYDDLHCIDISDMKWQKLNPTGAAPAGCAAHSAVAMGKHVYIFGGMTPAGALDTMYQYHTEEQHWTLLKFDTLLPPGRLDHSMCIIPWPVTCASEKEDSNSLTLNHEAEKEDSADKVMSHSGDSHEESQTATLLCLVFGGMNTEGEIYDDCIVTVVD
UniProt P51153: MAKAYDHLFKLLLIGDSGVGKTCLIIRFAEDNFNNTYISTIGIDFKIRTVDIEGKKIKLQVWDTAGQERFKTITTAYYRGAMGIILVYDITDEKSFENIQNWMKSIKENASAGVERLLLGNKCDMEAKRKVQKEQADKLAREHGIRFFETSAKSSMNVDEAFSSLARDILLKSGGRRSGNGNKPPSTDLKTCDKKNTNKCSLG
UniProt Q8TBN0: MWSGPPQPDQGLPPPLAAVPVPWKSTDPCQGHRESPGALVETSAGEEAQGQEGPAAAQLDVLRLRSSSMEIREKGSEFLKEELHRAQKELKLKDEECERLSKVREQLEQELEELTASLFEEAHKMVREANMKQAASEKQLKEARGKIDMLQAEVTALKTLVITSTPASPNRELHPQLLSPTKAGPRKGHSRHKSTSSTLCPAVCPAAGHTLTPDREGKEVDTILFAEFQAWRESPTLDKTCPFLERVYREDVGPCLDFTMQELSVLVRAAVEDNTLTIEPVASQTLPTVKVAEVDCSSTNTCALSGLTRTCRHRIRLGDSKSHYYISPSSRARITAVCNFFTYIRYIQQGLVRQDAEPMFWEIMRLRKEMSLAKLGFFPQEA
UniProt O14966: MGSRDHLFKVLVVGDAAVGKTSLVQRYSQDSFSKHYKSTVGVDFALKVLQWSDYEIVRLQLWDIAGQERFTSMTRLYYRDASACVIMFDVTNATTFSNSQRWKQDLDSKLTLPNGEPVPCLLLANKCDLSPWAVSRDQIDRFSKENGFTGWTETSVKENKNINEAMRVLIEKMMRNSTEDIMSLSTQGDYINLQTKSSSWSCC
UniProt Q3YEC7: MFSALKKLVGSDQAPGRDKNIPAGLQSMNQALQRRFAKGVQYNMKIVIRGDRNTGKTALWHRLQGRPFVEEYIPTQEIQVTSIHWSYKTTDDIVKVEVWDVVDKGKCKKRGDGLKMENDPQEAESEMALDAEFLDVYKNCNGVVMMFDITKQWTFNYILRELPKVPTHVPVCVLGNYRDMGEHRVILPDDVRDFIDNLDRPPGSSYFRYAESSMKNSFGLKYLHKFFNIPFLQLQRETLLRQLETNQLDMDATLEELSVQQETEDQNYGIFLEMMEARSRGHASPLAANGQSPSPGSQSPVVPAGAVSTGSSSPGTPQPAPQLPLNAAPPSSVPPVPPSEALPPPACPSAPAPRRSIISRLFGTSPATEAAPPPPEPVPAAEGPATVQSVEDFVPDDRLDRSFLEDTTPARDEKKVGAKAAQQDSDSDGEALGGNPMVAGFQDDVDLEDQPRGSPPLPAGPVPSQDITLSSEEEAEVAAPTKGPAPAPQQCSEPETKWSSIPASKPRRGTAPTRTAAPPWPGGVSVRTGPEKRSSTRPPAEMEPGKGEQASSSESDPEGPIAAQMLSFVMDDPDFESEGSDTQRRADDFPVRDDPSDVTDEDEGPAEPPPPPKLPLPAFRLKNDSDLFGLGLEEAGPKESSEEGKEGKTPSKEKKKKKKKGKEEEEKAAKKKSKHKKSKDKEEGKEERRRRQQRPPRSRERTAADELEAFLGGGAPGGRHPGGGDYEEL
UniProt Q9ULC3: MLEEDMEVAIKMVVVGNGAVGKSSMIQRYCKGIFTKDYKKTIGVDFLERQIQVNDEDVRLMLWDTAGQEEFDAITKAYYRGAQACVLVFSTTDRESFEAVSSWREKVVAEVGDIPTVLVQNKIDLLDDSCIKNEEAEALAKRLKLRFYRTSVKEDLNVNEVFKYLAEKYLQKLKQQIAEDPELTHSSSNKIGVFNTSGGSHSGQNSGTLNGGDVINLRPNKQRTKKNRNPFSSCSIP
UniProt P06400: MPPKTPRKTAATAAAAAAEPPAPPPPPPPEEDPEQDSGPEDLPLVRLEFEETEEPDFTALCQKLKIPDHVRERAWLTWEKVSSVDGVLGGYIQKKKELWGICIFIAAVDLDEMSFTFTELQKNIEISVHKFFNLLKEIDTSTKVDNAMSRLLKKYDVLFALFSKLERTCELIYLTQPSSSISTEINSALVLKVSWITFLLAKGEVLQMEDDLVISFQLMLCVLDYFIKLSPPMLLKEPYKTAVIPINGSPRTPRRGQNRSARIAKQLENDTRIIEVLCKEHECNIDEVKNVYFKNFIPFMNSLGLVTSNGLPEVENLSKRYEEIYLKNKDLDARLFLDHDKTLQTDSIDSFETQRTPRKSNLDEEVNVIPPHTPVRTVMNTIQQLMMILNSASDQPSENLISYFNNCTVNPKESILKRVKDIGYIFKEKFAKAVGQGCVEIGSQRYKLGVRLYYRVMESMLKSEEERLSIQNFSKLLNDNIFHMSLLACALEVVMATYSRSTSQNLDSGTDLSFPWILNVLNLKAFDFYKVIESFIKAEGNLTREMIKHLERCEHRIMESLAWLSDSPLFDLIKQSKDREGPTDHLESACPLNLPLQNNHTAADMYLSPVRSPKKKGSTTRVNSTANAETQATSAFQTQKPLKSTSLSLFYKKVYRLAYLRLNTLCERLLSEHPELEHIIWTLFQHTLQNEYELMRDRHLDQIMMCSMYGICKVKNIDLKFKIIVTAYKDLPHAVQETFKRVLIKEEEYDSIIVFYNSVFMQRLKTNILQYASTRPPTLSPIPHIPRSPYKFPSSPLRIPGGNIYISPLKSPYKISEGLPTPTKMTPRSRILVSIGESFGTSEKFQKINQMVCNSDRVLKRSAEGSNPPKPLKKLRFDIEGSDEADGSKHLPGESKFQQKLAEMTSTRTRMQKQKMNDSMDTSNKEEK
UniProt P47224: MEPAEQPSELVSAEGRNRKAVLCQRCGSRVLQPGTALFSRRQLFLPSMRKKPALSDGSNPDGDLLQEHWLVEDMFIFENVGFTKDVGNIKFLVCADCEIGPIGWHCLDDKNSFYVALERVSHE
UniProt Q15291, whole entry, looked up: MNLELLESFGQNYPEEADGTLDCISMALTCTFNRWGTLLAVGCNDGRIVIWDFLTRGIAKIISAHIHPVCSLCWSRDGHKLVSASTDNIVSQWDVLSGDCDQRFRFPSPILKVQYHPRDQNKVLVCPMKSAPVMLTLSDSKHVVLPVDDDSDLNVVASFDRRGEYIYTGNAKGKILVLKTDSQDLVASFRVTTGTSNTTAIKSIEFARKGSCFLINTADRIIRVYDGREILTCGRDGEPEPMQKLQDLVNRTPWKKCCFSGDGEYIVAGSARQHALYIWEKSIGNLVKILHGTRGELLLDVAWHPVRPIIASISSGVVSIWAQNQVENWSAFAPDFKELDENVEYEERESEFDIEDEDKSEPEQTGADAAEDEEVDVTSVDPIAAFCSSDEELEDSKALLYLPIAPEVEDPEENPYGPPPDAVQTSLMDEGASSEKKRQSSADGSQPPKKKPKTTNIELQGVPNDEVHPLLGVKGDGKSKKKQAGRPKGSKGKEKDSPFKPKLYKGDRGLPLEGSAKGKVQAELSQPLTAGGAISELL
UniProt Q09028, whole entry, looked up: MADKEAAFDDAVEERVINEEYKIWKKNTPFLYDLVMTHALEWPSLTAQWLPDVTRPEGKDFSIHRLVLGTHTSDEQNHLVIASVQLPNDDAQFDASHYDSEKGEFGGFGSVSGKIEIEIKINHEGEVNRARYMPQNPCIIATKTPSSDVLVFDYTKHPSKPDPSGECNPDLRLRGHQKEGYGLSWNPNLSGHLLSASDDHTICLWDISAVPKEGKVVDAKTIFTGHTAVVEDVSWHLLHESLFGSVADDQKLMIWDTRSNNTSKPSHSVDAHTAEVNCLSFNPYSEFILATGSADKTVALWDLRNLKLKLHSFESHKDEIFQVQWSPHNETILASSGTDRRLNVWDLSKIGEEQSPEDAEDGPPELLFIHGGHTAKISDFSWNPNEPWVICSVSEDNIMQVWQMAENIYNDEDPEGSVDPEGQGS
UniProt P43487, whole entry, looked up: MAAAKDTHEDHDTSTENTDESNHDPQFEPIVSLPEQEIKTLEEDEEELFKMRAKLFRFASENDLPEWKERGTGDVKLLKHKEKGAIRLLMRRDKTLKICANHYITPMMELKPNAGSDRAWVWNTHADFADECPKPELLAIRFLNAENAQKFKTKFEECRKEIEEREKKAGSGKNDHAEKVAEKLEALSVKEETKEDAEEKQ
UniProt Q9Y3P9: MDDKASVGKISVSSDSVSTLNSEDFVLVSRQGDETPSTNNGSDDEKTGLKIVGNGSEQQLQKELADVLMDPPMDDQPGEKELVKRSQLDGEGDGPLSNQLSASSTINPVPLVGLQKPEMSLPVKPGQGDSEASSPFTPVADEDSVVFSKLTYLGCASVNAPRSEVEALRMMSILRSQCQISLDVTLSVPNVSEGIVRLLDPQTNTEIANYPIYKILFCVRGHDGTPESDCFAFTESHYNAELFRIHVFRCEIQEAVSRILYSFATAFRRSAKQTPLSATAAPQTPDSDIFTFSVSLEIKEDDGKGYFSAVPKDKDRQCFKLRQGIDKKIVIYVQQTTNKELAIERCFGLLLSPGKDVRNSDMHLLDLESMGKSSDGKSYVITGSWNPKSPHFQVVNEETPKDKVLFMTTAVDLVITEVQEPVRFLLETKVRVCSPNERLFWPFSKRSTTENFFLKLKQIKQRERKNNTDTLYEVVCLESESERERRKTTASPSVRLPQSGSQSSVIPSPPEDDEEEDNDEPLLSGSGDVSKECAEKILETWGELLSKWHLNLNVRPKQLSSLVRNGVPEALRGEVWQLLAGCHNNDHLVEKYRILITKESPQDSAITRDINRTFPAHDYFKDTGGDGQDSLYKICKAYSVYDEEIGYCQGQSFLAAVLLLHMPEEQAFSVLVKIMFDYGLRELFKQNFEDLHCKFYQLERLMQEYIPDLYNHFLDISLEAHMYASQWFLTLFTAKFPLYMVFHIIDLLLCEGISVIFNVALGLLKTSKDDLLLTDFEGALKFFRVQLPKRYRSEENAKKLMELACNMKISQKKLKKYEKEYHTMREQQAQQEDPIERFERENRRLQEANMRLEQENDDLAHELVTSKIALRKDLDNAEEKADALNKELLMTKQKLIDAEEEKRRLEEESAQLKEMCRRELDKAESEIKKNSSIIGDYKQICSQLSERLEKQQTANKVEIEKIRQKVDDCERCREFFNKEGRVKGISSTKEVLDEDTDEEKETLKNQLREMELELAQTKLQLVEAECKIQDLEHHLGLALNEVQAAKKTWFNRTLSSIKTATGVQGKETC
UniProt O43502: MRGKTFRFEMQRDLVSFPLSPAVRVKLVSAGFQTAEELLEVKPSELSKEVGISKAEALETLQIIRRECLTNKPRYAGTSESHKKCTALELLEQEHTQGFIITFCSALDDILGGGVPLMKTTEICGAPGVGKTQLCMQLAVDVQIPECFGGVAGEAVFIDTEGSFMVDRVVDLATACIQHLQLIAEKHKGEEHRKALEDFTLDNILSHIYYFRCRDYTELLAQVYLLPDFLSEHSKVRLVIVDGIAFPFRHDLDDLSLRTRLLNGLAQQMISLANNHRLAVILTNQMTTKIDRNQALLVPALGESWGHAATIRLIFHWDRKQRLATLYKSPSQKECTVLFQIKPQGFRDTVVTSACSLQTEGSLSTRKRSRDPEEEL
UniProt Q6VN20, whole entry, looked up: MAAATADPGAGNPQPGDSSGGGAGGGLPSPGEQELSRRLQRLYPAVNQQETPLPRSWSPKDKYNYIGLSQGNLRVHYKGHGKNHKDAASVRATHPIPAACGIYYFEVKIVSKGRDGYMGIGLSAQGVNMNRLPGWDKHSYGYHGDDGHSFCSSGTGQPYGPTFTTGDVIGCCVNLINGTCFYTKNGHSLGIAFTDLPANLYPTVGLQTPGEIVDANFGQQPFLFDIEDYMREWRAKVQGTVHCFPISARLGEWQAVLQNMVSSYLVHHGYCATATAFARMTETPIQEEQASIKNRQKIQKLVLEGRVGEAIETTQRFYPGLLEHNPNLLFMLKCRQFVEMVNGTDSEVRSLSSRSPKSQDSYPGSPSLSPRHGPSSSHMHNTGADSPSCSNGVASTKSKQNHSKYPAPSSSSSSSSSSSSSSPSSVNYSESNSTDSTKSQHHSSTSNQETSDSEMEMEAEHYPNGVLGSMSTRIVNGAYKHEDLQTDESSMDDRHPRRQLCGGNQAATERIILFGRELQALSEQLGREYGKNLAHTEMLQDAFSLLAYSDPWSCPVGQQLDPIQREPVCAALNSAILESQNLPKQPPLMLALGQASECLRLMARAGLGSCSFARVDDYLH

Tests used:
Experiment in all cases: log2 fold change, soluble protein after heating vs DMSO (PISA); higher = thermal stabilisation; K562 cells, 10 uM, 30 min; active = over 0.2 and 3.5 SD of the protein, either way, in both replicates (recomputed)
[1] = compound: COC1=CC=C(C=C1)CN2C=CC3=C2C=C(C=C3)C(=O)NO
Summary of the method: (§1)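 Quantification of soluble protein used TMTpro 16plex LC-MS/MS, with channel sums equalised. Samples were the supernatant after 21,000xg for 90 min of pooled aliquots from K562 cells (2×10^6 cells/mL) treated with 10 μM compound for 30 min, heated for 3 min over 48°C-58°C, and extracted in PBS with 0.5% NP-40 at 4°C. Values, from duplicates, describe thermal stability against control samples on a log2 fold-change scale.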

filanesib = compound: CON(C)C(=O)N1N=C(c2cc(F)ccc2F)S[C@@]1(CCCN)c1ccccc1 [filanesib]
Summary of the method: as §1

zotarolimus = compound: CO[C@H]1C[C@@H]2CC[C@@H](C)[C@@](O)(O2)C(=O)C(=O)N2CCCC[C@H]2C(=O)O[C@H]([C@H](C)C[C@@H]2CC[C@H](n3cnnn3)[C@H](OC)C2)CC(=O)[C@H](C)/C=C(\C)[C@@H](O)[C@@H](OC)C(=O)[C@H](C)C[C@H](C)/C=C/C=C/C=C/1C [zotarolimus]
Summary of the method: as §1

idasanutlin = compound: COc1cc(C(=O)O)ccc1NC(=O)[C@@H]1N[C@@H](CC(C)(C)C)[C@](C#N)(c2ccc(Cl)cc2F)[C@H]1c1cccc(Cl)c1F [idasanutlin]
Summary of the method: as §1

alisertib = compound: COc1cc(Nc2ncc3c(n2)-c2ccc(Cl)cc2C(c2c(F)cccc2OC)=NC3)ccc1C(=O)O [alisertib]
Summary of the method: as §1

[2] = compound: COc1cc2nc(-c3cc(F)ccc3O)nc(N[C@@H]3CNC[C@H]3C(C)(C)O)c2cc1OC
Summary of the method: as §1

gefitinib = compound: COc1cc2ncnc(Nc3ccc(F)c(Cl)c3)c2cc1OCCCN1CCOCC1 [gefitinib]
Summary of the method: as §1

[3] = compound: COc1cccc2cc(-c3nc([C@H]4CC[C@H](C(=O)O)CC4)n4ncnc(N)c34)[nH]c12
Summary of the method: as §1

lapatinib = compound: CS(=O)(=O)CCNCc1ccc(-c2ccc3ncnc(Nc4ccc(OCc5cccc(F)c5)c(Cl)c4)c3c2)o1 [lapatinib]
Summary of the method: as §1

pictilisib = compound: CS(=O)(=O)N1CCN(Cc2cc3nc(-c4cccc5[nH]ncc45)nc(N4CCOCC4)c3s2)CC1 [pictilisib]
Summary of the method: as §1

Measured: log2 fold change

RAB4A (UniProt P20338)
inactive: [1] -0.058 | filanesib -0.033 | zotarolimus -0.033 | idasanutlin -0.02 | alisertib -0.007 | [2] 0.07 | gefitinib -0.014 | [3] 0.017 | lapatinib -0.051 | pictilisib 0.077

RAB19 isoform 2 (UniProt A4D1S5)
inactive: [1] -0.307 | filanesib -0.008

RAB22A (UniProt Q9UL26)
inactive: [1] -0.007 | filanesib -0.041 | zotarolimus 0.013 | idasanutlin -0.048 | alisertib -0.015 | [2] 0.078 | gefitinib 0.032 | [3] 0.075 | lapatinib -0.002 | pictilisib 0.028

RAB1B (UniProt Q9H0U4)
inactive: [1] 0.062 | filanesib -0.084 | zotarolimus -0.067 | idasanutlin -0.003 | alisertib 0.028 | [2] 0.06 | gefitinib 0.035 | [3] 0.098 | lapatinib -0.108 | pictilisib -0.003

RAB12, A0A3B3ITT1
inactive: [1] 0.018 | filanesib -0.008 | zotarolimus 0.006 | idasanutlin -0.044 | alisertib -0.056 | [2] 0.074 | gefitinib 0.02 | [3] 0.072 | lapatinib 0.001 | pictilisib 0.163

RABEPK (UniProt Q7Z6M1)
inactive: [1] -0.015 | filanesib -0.027 | zotarolimus 0.005 | idasanutlin -0.044 | alisertib 0.01 | [2] 0.016 | gefitinib 0.037 | [3] 0.029 | lapatinib -0.001 | pictilisib 0.011

RAD23A (UniProt P54725)
inactive: [1] -0.078 | filanesib 0.021 | zotarolimus -0.007 | idasanutlin 0.092 | alisertib -0.118 | [2] -0.033 | gefitinib 0.015 | [3] 0.047 | lapatinib -0.024 | pictilisib -0.002

RAB8A (UniProt P61006)
inactive: [1] 0.027 | filanesib -0.031 | zotarolimus 0.051 | idasanutlin -0.034 | alisertib 0.018 | [2] 0.015 | gefitinib 0.012 | [3] 0.032 | lapatinib -0.021 | pictilisib 0.033

RAB27B (UniProt O00194)
inactive: [1] -0.016 | filanesib 0.029 | zotarolimus -0.087 | idasanutlin 0.096 | alisertib 0.111 | [2] -0.031 | gefitinib 0.038 | [3] -0.109 | lapatinib -0.004 | pictilisib -0.092

RAB13 (UniProt P51153)
inactive: [1] -0.029 | filanesib -0.107 | zotarolimus 0.003 | idasanutlin -0.026 | alisertib -0.049 | [2] -0.107 | gefitinib 0 | [3] -0.003 | lapatinib 0.02 | pictilisib -0.034

RACGAP1 (UniProt Q9H0H5)
inactive: [1] 0.055 | filanesib 0.027 | zotarolimus -0.009 | idasanutlin 0.218 | alisertib 0.017 | [2] 0.021 | gefitinib 0.109 | [3] -0.023 | lapatinib 0.005 | pictilisib -0.006

RAB3IL1 (UniProt Q8TBN0)
inactive: [1] -0.006 | filanesib -0.003 | zotarolimus -0.023 | idasanutlin 0 | alisertib -0.115 | [2] 0.07 | gefitinib 0.033 | [3] 0.038 | lapatinib 0.001 | pictilisib -0.019

RAB29 (UniProt O14966)
inactive: [1] -0.02 | filanesib -0.018 | zotarolimus 0.048 | idasanutlin -0.096 | alisertib 0.043 | [2] 0.08 | gefitinib 0.028 | [3] 0.054 | lapatinib -0.07 | pictilisib -0.053

RABL6 (UniProt Q3YEC7)
inactive: [1] -0.048 | filanesib -0.01 | zotarolimus -0.024 | idasanutlin 0.03 | alisertib -0.043 | [2] 0 | gefitinib 0.032 | [3] 0.009 | lapatinib -0.019 | pictilisib 0.12

RAB23 (UniProt Q9ULC3)
inactive: [1] -0.022 | filanesib -0.015 | zotarolimus 0.031 | idasanutlin -0.02 | alisertib 0.137 | [2] 0.084 | gefitinib 0.038 | [3] 0.056 | lapatinib -0.025 | pictilisib 0.028

RBFOX2 isoform 8 (UniProt O43251)
inactive: [1] -0.223 | filanesib 0.208 | zotarolimus 0.008 | idasanutlin -0.122 | alisertib -0.118 | [2] -0.037 | gefitinib -0.238 | [3] -0.045 | lapatinib 0.237 | pictilisib 0.024

RBM25 (UniProt P49756)
inactive: filanesib 0.112 | zotarolimus 0.022 | idasanutlin 0.022 | alisertib -0.044 | [2] -0.035 | gefitinib 0.001 | [3] 0.043 | lapatinib -0.024 | pictilisib 0.052
active: [1] 0.285

RB1 (UniProt P06400)
active: [2] -0.325
inactive: [1] -0.028 | filanesib -0.08 | zotarolimus 0.011 | idasanutlin 0 | alisertib -0.016 | gefitinib 0.006 | [3] 0.052 | lapatinib 0.025 | pictilisib 0.033

RABIF (UniProt P47224)
inactive: [1] 0.092 | filanesib 0.041 | zotarolimus 0.03 | idasanutlin 0.02 | alisertib -0.151 | [2] -0.016 | gefitinib -0.018 | [3] -0.015 | lapatinib 0.061 | pictilisib -0.057

RBBP5 (UniProt Q15291)
inactive: [1] 0.032 | filanesib 0.026 | zotarolimus -0.04 | idasanutlin 0.017 | alisertib -0.052 | [2] -0.012 | gefitinib -0.008 | [3] 0.049 | lapatinib -0.002 | pictilisib -0.012

RBBP4 (UniProt Q09028)
inactive: [1] 0.112 | filanesib 0.021 | zotarolimus 0.002 | idasanutlin 0.002 | alisertib -0.037 | [2] -0.031 | gefitinib -0.002 | [3] 0.045 | lapatinib -0.021 | pictilisib 0.026

Taken from the listing (2 entries):
RAB23 (UniProt Q9ULC3)
inactive: [1] -0.022 | filanesib -0.015 | zotarolimus 0.031 | idasanutlin -0.02 | alisertib 0.137 | [2] 0.084 | gefitinib 0.038 | [3] 0.056 | lapatinib -0.025 | pictilisib 0.028

RBFOX2 isoform 8 (UniProt O43251)
inactive: [1] -0.223 | filanesib 0.208 | zotarolimus 0.008 | idasanutlin -0.122 | alisertib -0.118 | [2] -0.037 | gefitinib -0.238 | [3] -0.045 | lapatinib 0.237 | pictilisib 0.024

Further records:

RAC1 (UniProt P63000)
inactive: filanesib -0.118 | zotarolimus 0.044 | idasanutlin 0.003 | alisertib -0.066 | [2] 0.02 | gefitinib 0.039 | [3] 0.006 | lapatinib 0.004 | pictilisib -0.094
active: [1] 0.474

RANBP1 (UniProt P43487)
inactive: [1] 0.059 | filanesib -0.025 | zotarolimus 0.03 | idasanutlin 0.003 | alisertib -0.073 | [2] -0.024 | gefitinib 0 | [3] 0.014 | lapatinib -0.002 | pictilisib -0.056

RAB20 (UniProt Q9NX57)
inactive: [1] -0.095 | filanesib -0.053 | zotarolimus 0.022 | idasanutlin -0.073 | alisertib -0.017 | [2] 0.104 | gefitinib -0.033 | [3] 0.045 | lapatinib -0.005 | pictilisib 0.019

RABGAP1 (UniProt Q9Y3P9)
inactive: [1] -0.013 | filanesib 0.021 | zotarolimus -0.026 | idasanutlin 0.014 | alisertib 0.003 | [2] -0.003 | gefitinib -0.03 | [3] -0.015 | lapatinib -0.037 | pictilisib 0.027

RAB1A (UniProt P62820)
inactive: [1] -0.035 | filanesib -0.092 | zotarolimus -0.028 | idasanutlin -0.017 | alisertib -0.07 | [2] -0.002 | gefitinib 0.008 | [3] 0.033 | lapatinib -0.036 | pictilisib -0.001

RAD51C (UniProt O43502)
inactive: [1] 0.009 | filanesib -0.004 | zotarolimus 0.014 | idasanutlin -0.04 | alisertib -0.003 | [2] 0.046 | gefitinib -0.009 | [3] 0.029 | lapatinib 0.033 | pictilisib 0.009

RANBP10 (UniProt Q6VN20)
inactive: [1] 0.051 | filanesib -0.04 | zotarolimus 0.032 | idasanutlin 0.022 | alisertib -0.019 | [2] 0 | gefitinib 0.005 | [3] 0.031 | lapatinib 0 | pictilisib 0.024

RALA (UniProt P11233)
inactive: filanesib -0.025 | zotarolimus 0.035 | idasanutlin -0.019 | alisertib -0.066 | [2] -0.066 | gefitinib 0.004 | [3] 0.053 | lapatinib 0.025 | pictilisib -0.099
active: [1] 0.348

RARS (UniProt P54136)
inactive: [1] -0.045 | filanesib 0.079 | zotarolimus 0.049 | idasanutlin 0.052 | alisertib -0.059 | [2] -0.032 | gefitinib -0.025 | [3] -0.203 | lapatinib -0.008 | pictilisib -0.07
